# The other results are listed elsewhere or left out. The main result of the screen is listed elsewhere. These columns were measured beside it and carry no call. The list favours compounds with an active or inconclusive main result. Words in brackets tell the shape of the fitted curve; partial curves, single points and poor fits give uncertain potencies.
# Assay: qHTS Assay for Lipid Storage Modulators in Drosophila S3 Cells;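 as to cell number change: cells counted by Cell Tracker Red CMTPX staining in the red channel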
# Details: BODIPY lipid droplet fluorescence, 18-24 h; for cell number change: measured here: cell count max response, cells fed with added oleic acid
# Method in brief: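 Drosophila S3 cells got compounds at several concentrations plus oleic acid (400 uM solution). Laser-scanning cytometry with 488 nm excitation read lipid droplets at 500-530 nm and cells at 575-640 nm. Percent activity was relative to 20 uM Triacsin C.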
# [1] = measured here: lipid fluorescence (Fed channel) AC50, cells fed with added oleic acid
# [2] = measured here: cell number channel AC50, cells fed with added oleic acid
Structure (SMILES),cell number change,AC50 [1],AC50 [2]
Cc1cc(C)nc(NC2=NCCN2C(=O)NC2CCCCC2)n1,18.5%,"0.366 µM [rising, partial curve, poor fit]",
CCOc1ccc(N(CC(=O)Nc2ccccc2)S(C)(=O)=O)cc1,4.12%,,"0.517 µM [falling, full curve]"
Cc1ccc(NC(=O)NN(C)c2c(Cl)c(Cl)nn2C)cc1,,,"0.651 µM [rising, single point]"
O=C(O)CCC(=O)N1CCN(c2nc(-c3ccccc3)c3cc(Br)ccc3n2)CC1,19.9%,"6.51 µM [rising, single point]",
CCn1c(SCC(=O)Nc2c(C)n(C)n(-c3ccccc3)c2=O)nnc1-c1cccc(C)c1,3.5%,"0.00461 µM [rising, full curve, poor fit]",
CC1(C)CC(=O)C2=C(C1)NC(SCC(N)=O)=C(C#N)C21CCCCC1,36.3%,,"29.1 µM [rising, single point]"
O=C(COC(=O)c1ccccc1NC(=O)c1ccco1)Nc1ncc(Cl)cc1Cl,,"0.58 µM [rising, partial curve, poor fit]","1.46 µM [rising, partial curve]"
Cc1ccc(CNC(=O)COC(=O)CCC(=O)c2cccs2)cc1,3.96%,,
CCOC(=O)c1sc(C)c2c1NC(C)(c1cccs1)NC2=O (stereo not drawn),60.6%,"3.66 µM [rising, full curve]","2.06 µM [rising, full curve]"
O=C1CSC(c2ccccc2[N+](=O)[O-])N1c1ccc(O)cc1 (stereo not drawn),-10.9%,"0.731 µM [falling, full curve, poor fit]",
Cc1ccc(CNC(=O)CSCC(=O)O)cc1,11.5%,"29.1 µM [falling, single point]",
Cc1ccc(N2C(=O)C3C4C=CC(CNC(=S)N5CCN(c6ccccn6)CC5)(O4)C3C2=O)cc1 (stereo not drawn),0.753%,"4.61 µM [rising, partial curve, poor fit]",
CCn1nc(NS(=O)(=O)c2ccc(NC(C)=O)cc2)c2cc3cccc(C)c3nc21,-24.5%,,
CN1C(=O)CSc2ccc(NC(=O)N3CCOCC3)cc21,-2.72%,"14.6 µM [rising, single point]","0.231 µM [falling, full curve, poor fit]"
CC1CCCN(S(=O)(=O)c2ccc(C(=O)Nc3nnc(-c4ccccc4Cl)o3)cc2)C1 (stereo not drawn),,"16.4 µM [rising, single point]",
CCCCOc1ccc(C(=O)NCc2ccccn2)cc1,,"0.731 µM [falling, full curve]",

# Complete entries from above:
# CCn1c(SCC(=O)Nc2c(C)n(C)n(-c3ccccc3)c2=O)nnc1-c1cccc(C)c1 is listed with cell number change: 3.5%; AC50 [1]: 0.00461 µM [rising, full curve, poor fit]
# CC1CCCN(S(=O)(=O)c2ccc(C(=O)Nc3nnc(-c4ccccc4Cl)o3)cc2)C1 (stereo not drawn) is listed with AC50 [1]: 16.4 µM [rising, single point]

# Further compounds

Structure (SMILES),cell number change,AC50 [1],AC50 [2]
O=C(CN1C(=O)S/C(=C/c2cccs2)C1=O)N1CCCC1,1.55%,,
Cc1oc(S(=O)(=O)N(C)C)cc1C(=O)Nc1ccc(F)cc1,-44%,"29.1 µM [falling, single point]","20.6 µM [falling, single point]"
Cc1cc(C(C)(C)C)ccc1OCCOCCN1CCCC1,-7.77%,"20.6 µM [falling, partial curve]",
CNC(=S)NCCc1ccc(OC)cc1,14%,,"6.51 µM [rising, single point]"
O=C(N/N=C/c1ccc(C(=O)O)cc1)C(=O)N1CCCCCC1,16.1%,,
COc1ccc(CSc2nnnn2C)cc1[N+](=O)[O-],17.9%,,
COc1ccc(OCCOC(=O)c2cccs2)cc1,-32.3%,"0.326 µM [falling, full curve]",
CCSc1cc(N2CCCC2)nc(-c2ccc(Cl)cc2)n1,-32.1%,,"3.66 µM [falling, single point]"
Clc1ccc(Cn2cc(/C=N/n3cnnc3)c3ccccc32)cc1,-88.8%,"3.66 µM [rising, partial curve, poor fit]","16.4 µM [falling, partial curve]"
Cc1csc(=O)n1CC(=O)OCC(=O)Nc1ccccc1C(C)C,-9.2%,"13 µM [falling, partial curve, poor fit]",
CCOc1cc(NS(=O)(=O)c2ccc(NC(C)=O)cc2)c(OCC)cc1NC(=O)C(C)C,-10.1%,"2.31 µM [rising, partial curve]",
Cc1ccc(CSC2=NCCN2C(=O)C(C)Oc2ccccc2)cc1 (stereo not drawn),6.73%,,
Cc1cc(C)n(CCc2nc(-c3ccco3)cs2)n1,,,"0.206 µM [rising, full curve]"
O=C(COC(=O)c1cc2ccccc2cc1O)Nc1cccnc1Cl,-40.5%,"7.31 µM [rising, partial curve, poor fit]","29.1 µM [falling, single point]"
Cc1ccc(/C=N/NC(=O)c2ccc3nc[nH]c3c2)o1,-4.62%,"0.00461 µM [falling, full curve, poor fit]",
CCCCn1c(N)c(N(CCC(C)C)C(=O)c2ccccc2-n2cnnn2)c(=O)[nH]c1=O,6.43%,,
